Source: the supplement of paper PMC7858590
“And” between values parts separate entries of the source, which are not always exact repeats. Equal entries are not always repeated. ± gives the standard deviation of the averaged measurements. Whole data set: some 3,800 compounds, median “cell shape (eccentricity) Z-score vs DMSO control” near 1.1, cut for the lowest 2% near -4.7. The list shows a part of the results. Residues, ends and D or L forms follow the SMILES beside them. *: point of attachment. Cbz = O=C(OCc1ccccc1)*

Tested on: human monocyte-derived macrophages (M0)
Test: cell shape (eccentricity) Z-score vs DMSO control; higher = more elongated, M2-like morphology
Settings: 20 µM; 24 h; macrophage state: M0 (M-CSF)

Row | SMILES | cell shape (Z-score)
1 | C=CC(C)(O)C(O)CC1C(=C)CCC2C(C)(C(=O)O)CCCC12C (centres undefined) | 0.279 ± 2.5
2 | CC1=C2CCC(C(=O)O)=CC2C(C(C)C)CC1 (centres undefined) | 0.308
3 | C#C[C@]1(O)CCC2C3CCc4cc(OC)ccc4C3CC[C@@]21C (some centres undefined) | 1.4
4 | C[C@@H]1CC2C3CCC4=CC(=O)C=C[C@]4(C)[C@@]3(F)[C@@H](O)C[C@]2(C)[C@@]1(O)C(=O)CO (some centres undefined) | -0.196
5 | C[C@@H]1O[C@@H](O[C@H]2[C@H](O[C@H]3[C@H](O)[C@@H](C(=O)O)O[C@@H](O[C@H]4CC[C@@]5(C)C(CC[C@]6(C)C5CC[C@]57OC[C@@]8(CCC(C)(C)CC85)[C@H](O)C[C@]76C)C4(C)C)[C@@H]3O[C@@H]3O[C@H](CO)[C@@H](O[C@@H]4OC[C@@H](O)[C@H](O)[C@H]4O)[C@H](O)[C@H]3O)O[C@H](CO)[C@H](O)[C@@H]2O)[C@H](O)[C@H](O)[C@H]1O (some centres undefined) | -1.16
6 | COc1c(OC)c(O)c2c(=O)cc(-c3ccc(O)cc3)oc2c1OC | 0.968 ± 2.1
7 | C=C[C@@]12COC(=O)C(=C)C1[C@@H](O)[C@H](C(=C)C(=O)OC)[C@@H](OC(=O)C(=C)CO)C2 (some centres undefined) | 0.674
8 | C[C@@H]1CN([C@@H](C)CO)C(=O)c2cccc(NC(=O)c3ccncc3)c2O[C@H]1CN(C)C(=O)Nc1cccc2ccccc12 | 2.24
9 | CCN(CC)CCOC(=O)c1cc(Cl)c(N)cc1OC | -1.96
10 | C=C(C)C(O)C(O)c1c(OC)ccc2ccc(=O)oc12 (centres undefined) | -1.84 ± 0.5
11 | COc1cc(OC)c(/C=C/S(=O)(=O)Cc2ccc(OC)c(NCC(=O)O)c2)c(OC)c1 | 7.42
12 | Cc1cccc(C)c1OCC(C)N (centres undefined) | 1.2
13 | CC(C)NC(=O)N(C)C[C@H]1Oc2ccc(N(C)C)cc2C(=O)N([C@H](C)CO)C[C@H]1C | 1.12
14 | CC(C)(CO)C(O)C(=O)NCCCO (centres undefined) | 4.23
15 | Cc1cc(Nc2cc(N3CCN(C)CC3)nc(Sc3ccc(NC(=O)C4CC4)cc3)n2)n[nH]1 | 11 and 13 and 18
16 | Cn1c(=O)c2c(ncn2CCO)n(C)c1=O | -0.836
17 | CCN(CC)CCNC(=O)c1cc(Cl)c(N)cc1OC | -2.66
18 | COc1cc(C(O)CCOC2OC(CO)C(O)C(O)C2O)cc2cc(-c3ccc4c(c3)OCO4)oc12 (centres undefined) | 3.3
19 | COc1cc(C[C@@H]2CO[C@@H](c3ccc(O)c(OC)c3)[C@@H]2CO)ccc1O | 0.645
20 | Fc1ccc(C(c2ccc(F)cc2)N2CCN(CC=Cc3ccccc3)CC2)cc1 | 0.716
21 | CC(C)(C)c1cc(NC(=O)Nc2ccc(-c3cn4c(n3)sc3cc(OCCN5CCOCC5)ccc34)cc2)no1 | -1.1
22 | O=C(/C=C/c1ccc(O)cc1)CC(=O)/C=C/c1ccc(O)cc1 | -1.34
23 | Nc1ccccc1S(N)(=O)=O | 4.3

Row | SMILES | cell shape (Z-score)
24 | COc1cc(CCc2cc(NC(=O)c3ccc(N4C[C@@H](C)N[C@@H](C)C4)cc3)n[nH]2)cc(OC)c1 | 1.24
25 | COc1cc(OC2OC(COC3OCC(O)(CO)C3O)C(O)C(O)C2O)c2c(-c3ccc(O)c(O)c3)cc(=O)oc2c1 (centres undefined) | -0.273
26 | Nc1ncnc2c1ncn2[C@@H]1O[C@H](C[C@@H](N)CC[C@H](N)C(=O)O)[C@@H](O)[C@H]1O | 1.35
27 | C[C@@H]1CC2C3C[C@H](F)C4=CC(=O)C=C[C@]4(C)[C@@]3(F)[C@@H](O)C[C@]2(C)[C@@]1(O)C(=O)CO (some centres undefined) | -0.062
28 | CC(C)OC(=O)c1cc2c(OCC(O)CNC(C)(C)C)cccc2[nH]1 (centres undefined) | 2.05
29 | C=CC(=O)Nc1cccc(Oc2nc(Nc3ccc(N4CCN(C)CC4)cc3OC)ncc2Cl)c1 | 1.63
30 | C/C=C(/C)C(=O)OC(COc1c2ccoc2c(OC)c2oc(=O)ccc12)C(C)(C)O (centres undefined) | 2.13
31 | CC(=O)O[C@H]1CC[C@@]2(C)C(C[C@@H](OC(C)=O)[C@@]3(C)C4=CC(=O)O[C@@H](c5ccoc5)[C@]4(C)CCC23)C1(C)C (some centres undefined) | 0.0185
32 | O=C(O)c1cc2cc(F)ccc2[nH]1 | 4.76
33 | CCCCCCCCCCCCCCCCCCOP(=O)(O)OC1CC[N+](C)(C)CC1 | 0.379
34 | CN(C)c1cc(NC(=O)CNC(C)(C)C)c(O)c2c1C[C@H]1C[C@H]3[C@H](N(C)C)C(=O)C(C(N)=O)C(=O)[C@@]3(O)C(=O)C1C2=O (some centres undefined) | -0.865
35 | CC(C)(O)C1=CCC23COC(C2)C(O)(C(=O)O)CCC13 (centres undefined) | 2.27
36 | CCCCCCCCCC[C@@H]1C(=O)O[C@H]1CCc1ccc(OC)c(OC)c1 | -0.126
37 | O=C(O)c1cc(-c2ccccc2)nc2ccccc12 | 3.02
38 | Cc1ccc(C(O)(COC(=O)C(C)C)COC(=O)C(C)C)c(O)c1 | 2.62
39 | Cn1c(=O)c2c(ncn2CC(O)CO)n(C)c1=O (centres undefined) | 1.98
40 | COc1cc(OC)c2c(c1Cl)OC1(C(=O)CC(=O)CC1C)C2=O (centres undefined) | 0.148
41 | CC(C)Cn1cnc2c(N)nc3ccccc3c21 | 3.03
42 | CCn1ccnc1CC1COc2ccccc2O1 (centres undefined) | 0.589
43 | CN1CCN(C(c2ccccc2)c2ccc(Cl)cc2)CC1 (centres undefined) | 4.69
44 | CCCOc1ccccc1-c1nc2nn[nH]c2c(=O)[nH]1 | 0.426
45 | CC(=O)[C@]1(O)Cc2c(O)c3c(c(O)c2[C@@H](O[C@H]2C[C@H](N)[C@H](O)[C@H](C)O2)C1)C(=O)c1ccccc1C3=O | 1.52
46 | CC(C)[C@H](N)C(=O)OCC(CO)OCn1cnc2c(=O)[nH]c(N)nc21 (some centres undefined) | 0.485

5 of the compounds above, as tab-separated lines.
Row	SMILES	cell shape (Z-score)
7	C=C[C@@]12COC(=O)C(=C)C1[C@@H](O)[C@H](C(=C)C(=O)OC)[C@@H](OC(=O)C(=C)CO)C2 (some centres undefined)	0.674
8	C[C@@H]1CN([C@@H](C)CO)C(=O)c2cccc(NC(=O)c3ccncc3)c2O[C@H]1CN(C)C(=O)Nc1cccc2ccccc12	2.24
9	CCN(CC)CCOC(=O)c1cc(Cl)c(N)cc1OC	-1.96
10	C=C(C)C(O)C(O)c1c(OC)ccc2ccc(=O)oc12 (centres undefined)	-1.84 ± 0.5
11	COc1cc(OC)c(/C=C/S(=O)(=O)Cc2ccc(OC)c(NCC(=O)O)c2)c(OC)c1	7.42

More entries follow.

Row | SMILES | cell shape (Z-score)
47 | Cn1cnc(-c2cc3nccc(Oc4ccc(NC(=S)NC(=O)Cc5ccccc5)cc4F)c3s2)c1 | 15.9
48 | CCCCC#Cc1nc(NC)c2ncn(C3OC(CO)C(O)C3O)c2n1 (centres undefined) | 3.94
49 | CN1CCN(c2nc(C3=C(c4c[nH]c5ccccc45)C(=O)NC3=O)c3ccccc3n2)CC1 | 10.5
50 | COc1ccc(C(C#N)C(C)C)cc1OC (centres undefined) | 3.39
51 | COC(=O)C1=C(C)NC(C)=C(C(=O)NCCCN2CCC(c3ccccc3)(c3ccccc3)CC2)C1c1ccc([N+](=O)[O-])cc1 (centres undefined) | -1.22
52 | C/C=C1/CN[C@H]2Cc3c([nH]c4ccccc34)C(=O)C[C@H]1C2C(=O)OC (some centres undefined) | 0.613 ± 0.52
53 | S=C(S)OC1CC2CC1C1CCCC21 (centres undefined) | 0.671
54 | O=C1c2ccccc2C(=O)C1c1ccccc1 | 0.176
55 | COc1ccc(-c2cc(=O)c3c(O)cc(O[C@@H]4O[C@H](C(=O)O)[C@@H](O)[C@H](O)[C@H]4O)cc3o2)cc1 | -0.672
56 | CC(C)C[C@@H](C=O)NC(=O)[C@H](CC(C)C)NC(=O)[C@H](CC(C)C)NC(=O)OCc1ccccc1 (Cbz-Leu-Leu-Leu-aldehyde) | 5.25
57 | CCC(=O)c1c(O)cc(O)cc1O | -0.633
58 | O=C(O)c1cn(-c2ccc(F)cc2)c2cc(N3CCNCC3)c(F)cc2c1=O | -0.976
59 | C#CC1(OCC(O)CN2CCN(c3cccc(C(F)(F)F)c3)CC2)CCCCC1 (centres undefined) | -7.88
60 | COc1ccc(C2Oc3c(OC)cc(/C=C/COC4OC(CO)C(O)C(O)C4O)cc3C2CO)cc1OC (centres undefined) | 0.895
61 | CC(/C=C/C1(O)C(C)CC(O)CC1(C)C)OC1OC(CO)C(O)C(O)C1O (centres undefined) | 0.819
62 | COc1ccc2nc(S(=O)Cc3ncc(C)c(OC)c3C)[nH]c2c1 (centres undefined) | 3.27
63 | CCn1cc(C(=O)O)c(=O)c2cc(F)c(N3CCN(C)CC3)cc21 | -1.21
64 | NS(=O)(=O)c1cccc2c1c([N+](=O)[O-])cc1[nH]c(=O)c(=O)[nH]c12 | -0.858
65 | CC1OC(OC(=O)C2=CC3CC(C)(C)CC34C(C)OC(=O)CC24)C(O)C(O)C1O (centres undefined) | 0.307
66 | CC(C)CC(=O)c1c(O)cc(O)cc1OC1OC(COC(=O)c2cc(O)c(O)c(O)c2)C(O)C(O)C1O (centres undefined) | 1.59
67 | CC1=C(CO)CC(C(C)C2CCC3C4CC=C5CC(OC6OC(COC7OC(CO)C(O)C(O)C7O)C(O)C(O)C6O)CC(O)C5(C)C4CCC23C)OC1=O (centres undefined) | -0.103
68 | CCOC(=O)N[C@@H]1CC[C@@H]2[C@@H](C1)C[C@H]1C(=O)O[C@H](C)[C@H]1[C@H]2/C=C/c1ccc(-c2cccc(F)c2)cn1 | 5.12
69 | COc1ccc2c(c1OC)C(=O)O[C@@H]2C1c2c(cc3c(c2OC)OCO3)CCN1C (some centres undefined) | 1.37

Row | SMILES | cell shape (Z-score)
70 | C[C@@H]1CC(=O)C2=C(C1)C[C@@H](O)[C@@]1(O)C2C(=O)c2cccc(O)c2[C@@H]1O (some centres undefined) | 1.2 ± 2
71 | Cc1nc2sccn2c(=O)c1CCN1CCC(=C(c2ccccc2)c2ccc(F)cc2)CC1 | -0.891
72 | COc1c(O)cccc1O | 3.67
73 | O=C(OCC1=CC(O)C2C=CO[C@@H](O[C@@H]3O[C@H](CO)[C@@H](O)[C@H](O)[C@H]3O)C12)c1ccccc1 (some centres undefined) | 0.548
74 | Cn1ccc2cc(NC(=O)Nc3cccnc3)ccc21 | -2.48
75 | CCC(C)C(O)C(C)(O)/C=C/C1=CC2=CC(=O)C(C)(O)C(O)C2CO1 (centres undefined) | 1.53
76 | CC(=O)OC/C=C(\CO)CC/C=C(\C)CC/C=C(\CC/C=C(\C)COC(C)=O)C(=O)O | 0.0582
77 | COC(=O)[C@H](c1ccccc1Cl)N1CCc2sccc2C1 | 2.48
78 | CC#CCOC(=O)C1=CCCN(C)C1 | 0.946
79 | COc1cc(O)cc(C2=C(C)CC(O)C2=O)c1 (centres undefined) | -0.518
80 | COc1cc(O)cc(O)c1C(=O)/C=C/c1ccccc1 | 0.64
81 | C[C@@H]([C@@H](O)c1ccc(O)cc1)N1CCC(O)(c2ccccc2)CC1 | -1.15
82 | CCCC(O)c1c(O)cccc1C1(O)CC(=O)C/C1=C\C(O)CC(=O)O (centres undefined) | 2.51
83 | C/C=C1/[C@H](O[C@@H]2O[C@H](CO)[C@@H](O)[C@H](O)[C@H]2O)OC=C2C(=O)O[C@@H]3C[C@@H](C(C)CO)[C@H](COC(=O)C[C@H]21)[C@H]3C (some centres undefined) | 1.19
84 | CCc1cc(Cl)c(OC)c(C(=O)NCC2CCCN2CC)c1O (centres undefined) | -0.609
85 | CC(C)(C)c1ccc(C=CC(=O)Nc2ccc3c(c2)OCCO3)cc1 | 2.06
86 | C[C@@H]1C[C@H]2[C@@H]3CCC4=CC(=O)C=C[C@]4(C)[C@@]3(F)[C@@H](O)C[C@]2(C)[C@@]1(O)C(=O)CO | -1.82
87 | O=c1c(-c2ccccc2)coc2cc(O)ccc12 | -0.511
88 | CCCCCCCCc1ccc(-c2ccc(C(=O)O)cc2)cc1 | 7.84
89 | Cc1nc(NC(=O)N2CCC[C@H]2C(N)=O)sc1-c1ccnc(C(C)(C)C(F)(F)F)c1 | -2.55
